Article PMC4488268
These are yes or no findings as the source states them, for the method shown. Some binding calls cover weakened binding; strength is not graded here. Sequences can lack the tags named with a protein.

Target: full-length NLRP7, Flag-tagged (human) (UniProt Q8WX94)
Assay: native gel or EMSA; Blue Native PAGE (Bis-Tris NativePAGE) of digitonin (1%-2.5%) lysates of HEK293T cells co-transfected with Flag-NLRP7 and ZBTB16-Myc; second dimension SDS-PAGE; blots with anti-Flag and anti-Myc

B1: full-length NLRP7, Flag-tagged (protein, UniProt Q8WX94 1-980)
chain: MTSPQLEWTLQTLLEQLNEDELKSFKSLLWAFPLEDVLQKTPWSEVEEADGKKLAEILVNTSSENWIRNATVNILEEMNLTELCKMAKAEMMEDGQVQEIDNPELGDAEEDSELAKPGEKEGWRNSMEKQSLVWKNTFWQGDIDNFHDDVTLRNQRFIPFLNPRTPRKLTPYTVVLHGPAGVGKTTLAKKCMLDWTDCNLSPTLRYAFYLSCKELSRMGPCSFAELISKDWPELQDDIPSILAQAQRILFVVDGLDELKVPPGALIQDICGDWEKKKPVPVLLGSLLKRKMLPRAALLVTTRPRALRDLQLLAQQPIYVRVEGFLEEDRRAYFLRHFGDEDQAMRAFELMRSNAALFQLGSAPAVCWIVCTTLKLQMEKGEDPVPTCLTRTGLFLRFLCSRFPQGAQLRGALRTLSLLAAQGLWAQMSVFHREDLERLGVQESDLRLFLDGDILRQDRVSKGCYSFIHLSFQQFLTALFYALEKEEGEDRDGHAWDIGDVQKLLSGEERLKNPDLIQVGHFLFGLANEKRAKELEATFGCRMSPDIKQELLQCKAHLHANKPLSVTDLKEVLGCLYESQEEELAKVVVAPFKEISIHLTNTSEVMHCSFSLKHCQDLQKLSLQVAKGVFLENYMDFELDIEFERCTYLTIPNWARQDLRSLRLWTDFCSLFSSNSNLKFLEVKQSFLSDSSVRILCDHVTRSTCHLQKVEIKNVTPDTAYRDFCLAFIGKKTLTHLTLAGHIEWERTMMLMLCDLLRNHKCNLQYLRLGGHCATPEQWAEFFYVLKANQSLKHLRLSANVLLDEGAMLLYKTMTRPKHFLQMLSLENCRLTEASCKDLAAVLVVSKKLTHLCLAKNPIGDTGVKFLCEGLSYPDCKLQTLVLQQCSITKLGCRYLSEALQEACSLTNLDLSINQIARGLWILCQALENPNCNLKHLRLKTYETNLEIKKLLEEVKEKNPKLTIDCNASGATAPPCCDFFC
binding: binds
